Substitutions are numbered along the chain they refer to. Results are given in words; binding and its absence hold for the method and conditions named. Some results given as binding are weak or reduced against the parent protein; the word gives no strength. Values belong to the binder of their own block, whether it stands above or below them.
Molecular target: T1, soluble recombinant hCD43 20-253 expressed by COLO 205 cells (human) (UniProt P16150)
T1 sequence (glycoform of COLO 205 cells, looked up): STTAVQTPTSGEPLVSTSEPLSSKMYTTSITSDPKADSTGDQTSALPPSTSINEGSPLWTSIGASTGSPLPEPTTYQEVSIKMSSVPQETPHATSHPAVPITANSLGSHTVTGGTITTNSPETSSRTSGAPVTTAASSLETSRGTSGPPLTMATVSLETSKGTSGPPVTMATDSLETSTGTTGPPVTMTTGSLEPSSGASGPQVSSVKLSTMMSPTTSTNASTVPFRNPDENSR
Assay: Western blot of protein A purified soluble CD43

binding: binds
B1: monoclonal antibody 51-41 (antibody, V domains shown)
VH: EVQLQQSGTVLARPGASVKMSCKASGYSFTSYWMHWVKQRTGQGLEWIGAISPGDGDTTYNQKFTGKAKLTAVTSASTAYMELSSLTHEDSAVYYCTRRDGSYQVAWFAYWGRGTLVTVSA
VL: DVLMTQTPLSLPVSLGDQASISCRSSQSIVHSNGNTYLEWFLQKPGQSPKLLIYKVSNRFSGVPDRFSGSGSGTDFTLKISRVEAEDLGVYYCFQGSHVPFTFGSGTKLEIK

binding: binds
B2: monoclonal antibody 138-10 (antibody, V domains shown)
VH: B1 VH with T30I, T41P, G56S, K63R, H88N, T97I, S102N, R113Q
VL: B1 VL with F41Y
